Measured values reported in PMC6481338.
No constants are given. Whether binding was seen depends on the method and setting. In cells and extracts the contact can be indirect. Some results given as binding are weak or reduced against the parent protein; the word gives no strength. Values belong to the molecule of their own block, whether it stands above or below them.

Sequences of proteins named here, by UniProt entry; tags and fusion partners are left off. A change or cut given only in a name is not applied to a line headed by its entry. Residues count along the entry.
UniProt P16070, residues 21-742: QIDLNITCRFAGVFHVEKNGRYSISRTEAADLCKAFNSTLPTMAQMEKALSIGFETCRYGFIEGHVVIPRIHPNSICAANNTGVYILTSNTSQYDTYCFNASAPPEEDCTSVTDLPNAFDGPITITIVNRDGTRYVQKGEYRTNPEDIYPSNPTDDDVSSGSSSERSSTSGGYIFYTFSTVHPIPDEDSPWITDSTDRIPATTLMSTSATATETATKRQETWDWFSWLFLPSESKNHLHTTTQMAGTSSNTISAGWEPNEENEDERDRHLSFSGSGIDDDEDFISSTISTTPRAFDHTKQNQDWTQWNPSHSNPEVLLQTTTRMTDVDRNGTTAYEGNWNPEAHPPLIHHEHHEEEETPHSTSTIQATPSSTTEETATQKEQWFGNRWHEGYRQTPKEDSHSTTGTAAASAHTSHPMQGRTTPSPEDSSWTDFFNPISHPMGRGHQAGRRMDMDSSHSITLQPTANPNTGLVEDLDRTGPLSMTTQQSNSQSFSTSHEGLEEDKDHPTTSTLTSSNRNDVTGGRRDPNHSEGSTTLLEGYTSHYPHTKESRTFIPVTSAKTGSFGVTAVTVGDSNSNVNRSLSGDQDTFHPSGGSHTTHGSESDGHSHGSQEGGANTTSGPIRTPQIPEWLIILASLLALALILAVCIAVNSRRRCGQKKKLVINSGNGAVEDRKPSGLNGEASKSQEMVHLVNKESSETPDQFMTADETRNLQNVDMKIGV
UniProt P05556: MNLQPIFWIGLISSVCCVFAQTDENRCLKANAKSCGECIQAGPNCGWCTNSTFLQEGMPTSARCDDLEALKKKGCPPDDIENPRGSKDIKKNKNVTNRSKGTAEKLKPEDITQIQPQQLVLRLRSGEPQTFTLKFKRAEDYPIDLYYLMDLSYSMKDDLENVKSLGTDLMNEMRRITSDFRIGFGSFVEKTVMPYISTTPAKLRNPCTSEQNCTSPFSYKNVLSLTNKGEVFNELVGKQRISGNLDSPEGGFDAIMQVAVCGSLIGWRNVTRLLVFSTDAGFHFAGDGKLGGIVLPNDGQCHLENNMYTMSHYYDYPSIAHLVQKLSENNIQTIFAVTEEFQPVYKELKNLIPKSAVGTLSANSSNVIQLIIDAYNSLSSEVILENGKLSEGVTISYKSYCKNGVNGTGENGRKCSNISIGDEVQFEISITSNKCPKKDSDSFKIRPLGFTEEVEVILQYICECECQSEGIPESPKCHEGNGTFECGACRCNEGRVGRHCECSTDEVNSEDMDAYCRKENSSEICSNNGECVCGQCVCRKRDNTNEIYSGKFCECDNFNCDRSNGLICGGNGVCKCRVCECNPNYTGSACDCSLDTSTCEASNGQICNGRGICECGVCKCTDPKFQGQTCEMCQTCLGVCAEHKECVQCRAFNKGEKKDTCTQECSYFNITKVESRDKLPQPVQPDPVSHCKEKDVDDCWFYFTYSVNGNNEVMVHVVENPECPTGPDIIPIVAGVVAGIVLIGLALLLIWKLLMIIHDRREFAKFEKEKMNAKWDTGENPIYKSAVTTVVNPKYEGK

Legend:
Experiment in all cases: co-IP; whole-cell lysates of TMK-1 (and MKN74 for CLDN4-CLDN4), pre-cleaned with protein A/G agarose; precipitation antibody to CLDN4 (4D3) or CLDN7 with protein A/G agarose, 3 h at 4°C, five washes with lysis buffer; immunoblot for CLDN4, integrin β1, CD44; cells untreated, treated with 4D3, or with CLDN4 or ITGβ1 knockdown
[1] = molecular target: claudin-4 (CLDN4) (human (endogenous in TMK-1 and MKN74)) (UniProt O14493)
[2] = molecular target: T1, CLDN7 (human (endogenous in TMK-1)) (UniProt O95471)
T1 sequence: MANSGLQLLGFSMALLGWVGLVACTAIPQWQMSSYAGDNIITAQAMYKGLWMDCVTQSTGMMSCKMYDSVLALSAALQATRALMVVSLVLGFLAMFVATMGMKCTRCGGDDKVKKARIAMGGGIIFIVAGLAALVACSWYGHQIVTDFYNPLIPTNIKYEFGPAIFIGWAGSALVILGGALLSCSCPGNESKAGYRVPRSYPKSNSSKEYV

[3] = molecular target: T2, CLDN7 (human (endogenous in TMK-1)), O95471; conditions: remark: other sources report otherwise
T2 chain: T1 sequence

[4] = molecular target: T3, claudin-4 (CLDN4) (human (endogenous in TMK-1 and MKN74)), O14493; conditions: remark: other sources report otherwise
T3 chain: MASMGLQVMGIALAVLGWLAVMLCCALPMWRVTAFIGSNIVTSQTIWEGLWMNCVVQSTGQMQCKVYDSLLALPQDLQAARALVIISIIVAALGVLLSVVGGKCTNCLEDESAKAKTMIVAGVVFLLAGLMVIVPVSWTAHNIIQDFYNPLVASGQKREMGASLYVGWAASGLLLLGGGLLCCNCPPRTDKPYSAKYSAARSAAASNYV

binding [1]: binds
Molecule: CD44 (from UniProt P16070 21-742) (receptor)

binding [2]: binds
Molecule: integrin β1 (ITGβ1) (from UniProt P05556 21-798) (receptor)

binding [3]: no binding | binding [4]: binds
B1: claudin-4 (CLDN4), O14493 1-209 (protein)
chain: T3 chain
